For one molecule, C4 results are on record in article PMC7862507, “Adrenomedullin for steroid-resistant ulcerative colitis: a randomized, double-blind, placebo-controlled phase-2a clinical trial” (Journal of Gastroenterology, 2020).

The test system of the data set is C4. Description: Complement component C4. The data set is classed as in vivo, Japanese patients. Conditions: mean ± SD.

Take `CC[C@H](C)[C@H](NC(=O)[C@H](CCC(N)=O)NC(=O)[C@H](Cc1c[nH]cn1)NC(=O)[C@H](C)NC(=O)[C@H](CC(C)C)NC(=O)[C@H](CCCCN)NC(=O)[C@H](CCC(N)=O)NC(=O)[C@@H](NC(=O)[C@@H](NC(=O)[C@@H]1CSSC[C@H](NC(=O)CNC(=O)[C@H](Cc2ccccc2)NC(=O)[C@H](CO)NC(=O)[C@H](CCCNC(=N)N)NC(=O)[C@H](CC(C)C)NC(=O)CNC(=O)[C@H](CCC(N)=O)NC(=O)[C@H](Cc2ccccc2)NC(=O)[C@H](CC(N)=O)NC(=O)[C@H](CC(N)=O)NC(=O)[C@H](CCSC)NC(=O)[C@H](CO)NC(=O)[C@H](CCC(N)=O)NC(=O)[C@H](CCCNC(=N)N)NC(=O)[C@@H](N)Cc2ccc(O)cc2)C(=O)N[C@@H](CCCNC(=N)N)C(=O)N[C@@H](Cc2ccccc2)C(=O)NCC(=O)N[C@@H]([C@@H](C)O)C(=O)N1)[C@@H](C)O)C(C)C)C(=O)N[C@@H](Cc1ccc(O)cc1)C(=O)N[C@@H](CCC(N)=O)C(=O)N[C@@H](Cc1ccccc1)C(=O)N[C@H](C(=O)N[C@@H](CC(=O)O)C(=O)N[C@@H](CCCCN)C(=O)N[C@@H](CC(=O)O)C(=O)N[C@@H](CCCCN)C(=O)N[C@@H](CC(=O)O)C(=O)N[C@@H](CC(N)=O)C(=O)N[C@H](C(=O)N[C@@H](C)C(=O)N1CCC[C@H]1C(=O)N[C@@H](CCCNC(=N)N)C(=O)N[C@@H](CO)C(=O)N[C@@H](CCCCN)C(=O)N[C@H](C(=O)N[C@@H](CO)C(=O)N1CCC[C@H]1C(=O)N[C@@H](CCC(N)=O)C(=O)NCC(=O)N[C@@H](Cc1ccc(O)cc1)C(N)=O)[C@@H](C)CC)C(C)C)[C@@H](C)O` [Adrenomedullin]: the C4 is listed as 34 ± 4 mg/dL (AM 5 ng/kg/min (n = 3), 2 W, Pre 35 ± 7); 27 ± 5 mg/dL (AM 5 ng/kg/min (n = 3), 4 W, Pre 35 ± 7); 35 ± 13 mg/dL (AM 5 ng/kg/min (n = 3), 8 W, Pre 35 ± 7); 32 ± 11 mg/dL (AM 10 ng/kg/min (n = 3), 2 W, Pre 30 ± 9); 27 ± 12 mg/dL (AM 10 ng/kg/min (n = 3), 4 W, Pre 30 ± 9); 28 ± 7 mg/dL (AM 10 ng/kg/min (n = 3), 8 W, Pre 30 ± 9). The C4 runs as follows: (AM 15 ng/kg/min (n = 3), 2 W, Pre 35 ± 11) 35 ± 11 mg/dL; (AM 15 ng/kg/min (n = 3), 4 W, Pre 35 ± 11) 23 ± 1 mg/dL; (AM 15 ng/kg/min (n = 3), 8 W, Pre 35 ± 11) 22 ± 2 mg/dL.
